Results as given in publication PMC11341912.
Results are given in words; binding and its absence hold for the method and conditions named. In cells and extracts the contact can be indirect. A yes stands for co-enrichment or nearness to the bait. Other partners may have been found.

Chains of the proteins cited; added tags and fusions are not shown.
UniProt P09874: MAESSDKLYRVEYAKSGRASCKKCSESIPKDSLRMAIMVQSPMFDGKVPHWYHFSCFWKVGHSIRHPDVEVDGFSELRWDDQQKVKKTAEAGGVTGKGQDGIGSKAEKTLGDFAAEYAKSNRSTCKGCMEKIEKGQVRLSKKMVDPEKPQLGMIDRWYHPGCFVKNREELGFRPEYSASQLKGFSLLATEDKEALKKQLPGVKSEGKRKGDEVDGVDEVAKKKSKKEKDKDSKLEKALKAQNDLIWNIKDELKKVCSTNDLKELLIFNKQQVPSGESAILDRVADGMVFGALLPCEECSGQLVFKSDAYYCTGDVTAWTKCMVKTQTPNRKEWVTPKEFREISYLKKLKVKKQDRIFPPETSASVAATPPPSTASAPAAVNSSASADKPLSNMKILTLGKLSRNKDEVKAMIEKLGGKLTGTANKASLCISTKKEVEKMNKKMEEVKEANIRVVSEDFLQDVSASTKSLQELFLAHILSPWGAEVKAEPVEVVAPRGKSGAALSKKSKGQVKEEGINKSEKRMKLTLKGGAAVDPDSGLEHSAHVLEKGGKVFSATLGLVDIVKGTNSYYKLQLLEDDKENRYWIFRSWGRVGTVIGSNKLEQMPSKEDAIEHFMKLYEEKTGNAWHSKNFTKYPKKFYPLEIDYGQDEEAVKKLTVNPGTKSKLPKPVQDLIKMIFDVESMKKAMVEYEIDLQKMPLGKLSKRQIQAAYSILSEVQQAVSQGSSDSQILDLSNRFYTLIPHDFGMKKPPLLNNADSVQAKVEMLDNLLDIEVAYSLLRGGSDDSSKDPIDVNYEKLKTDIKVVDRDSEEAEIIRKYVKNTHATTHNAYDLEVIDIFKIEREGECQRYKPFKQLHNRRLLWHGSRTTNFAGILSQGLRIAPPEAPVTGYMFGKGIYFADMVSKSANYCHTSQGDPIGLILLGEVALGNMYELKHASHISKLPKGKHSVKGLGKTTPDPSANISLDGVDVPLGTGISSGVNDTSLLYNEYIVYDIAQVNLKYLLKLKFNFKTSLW
UniProt P16402: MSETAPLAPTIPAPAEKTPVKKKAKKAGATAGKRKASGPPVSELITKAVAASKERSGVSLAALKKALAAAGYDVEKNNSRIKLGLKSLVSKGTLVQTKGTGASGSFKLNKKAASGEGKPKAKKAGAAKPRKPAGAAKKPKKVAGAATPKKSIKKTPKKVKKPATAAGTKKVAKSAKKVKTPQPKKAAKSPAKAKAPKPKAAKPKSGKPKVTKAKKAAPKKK
UniProt Q9ULW0: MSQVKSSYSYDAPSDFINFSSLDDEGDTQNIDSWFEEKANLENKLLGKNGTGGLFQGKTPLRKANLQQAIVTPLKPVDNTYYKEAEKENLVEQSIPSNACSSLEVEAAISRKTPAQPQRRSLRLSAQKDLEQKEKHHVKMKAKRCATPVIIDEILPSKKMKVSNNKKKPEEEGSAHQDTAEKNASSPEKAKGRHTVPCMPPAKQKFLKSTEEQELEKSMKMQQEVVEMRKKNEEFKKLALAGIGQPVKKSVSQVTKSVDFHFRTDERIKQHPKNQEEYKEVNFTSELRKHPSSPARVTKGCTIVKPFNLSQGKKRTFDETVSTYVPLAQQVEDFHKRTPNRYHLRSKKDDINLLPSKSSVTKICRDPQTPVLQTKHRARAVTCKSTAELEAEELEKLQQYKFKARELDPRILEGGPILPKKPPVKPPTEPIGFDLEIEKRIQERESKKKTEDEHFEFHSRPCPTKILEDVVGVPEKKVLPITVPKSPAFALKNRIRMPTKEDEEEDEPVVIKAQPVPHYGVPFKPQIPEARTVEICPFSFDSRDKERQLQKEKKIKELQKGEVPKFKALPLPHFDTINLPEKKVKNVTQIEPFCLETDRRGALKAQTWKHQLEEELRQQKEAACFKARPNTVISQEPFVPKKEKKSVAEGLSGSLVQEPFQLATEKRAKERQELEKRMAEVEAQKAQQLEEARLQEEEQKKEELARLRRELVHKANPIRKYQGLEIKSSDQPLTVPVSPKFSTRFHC
UniProt P17028: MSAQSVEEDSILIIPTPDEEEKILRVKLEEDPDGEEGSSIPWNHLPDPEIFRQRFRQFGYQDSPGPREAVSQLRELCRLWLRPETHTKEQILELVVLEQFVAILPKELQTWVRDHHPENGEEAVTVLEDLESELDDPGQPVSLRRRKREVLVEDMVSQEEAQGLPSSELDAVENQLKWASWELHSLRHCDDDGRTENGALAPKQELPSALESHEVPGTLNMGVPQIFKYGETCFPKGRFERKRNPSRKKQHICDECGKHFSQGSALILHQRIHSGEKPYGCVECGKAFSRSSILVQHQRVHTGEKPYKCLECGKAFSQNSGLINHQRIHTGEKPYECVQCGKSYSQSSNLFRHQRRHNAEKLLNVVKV

Molecular target: full-length PARP1 tagged on the C-terminus with TurboID (UniProt P09874)
Experiment: proximity labelling; PARP1-TurboID transiently expressed in cells, 500 μM biotin for 10 min at 37 °C; streptavidin beads under denaturing conditions (8 M urea), mass spectrometry; controls TurboID alone and no biotin

binding | Molecule
binds | HIST1H1D (from UniProt P16402 1-221)
binds | TPX2 (from UniProt Q9ULW0 1-747)
binds | endogenous ZNF24 (from UniProt P17028 1-368)
binds | endogenous UTP14A (protein, UniProt Q9BVJ6 1-771) MTANRLAESLLALSQQEELADLPKDYLLSESEDEGDNDGERKHQKLLEAISSLDGKNRRKLAERSEASLKVSEFNVSSEGSGEKLVLADLLEPVKTSSSLATVKKQLSRVKSKKTVELPLNKEEIERIHREVAFNKTAQVLSKWDPVVLKNRQAEQLVFPLEKEEPAIAPIEHVLSGWKARTPLEQEIFNLLHKNKQPVTDPLLTPVEKASLRAMSLEEAKMRRAELQRARALQSYYEAKARREKKIKSKKYHKVVKKGKAKKALKEFEQLRKVNPAAALEELEKIEKARMMERMSLKHQNSGKWAKSKAIMAKYDLEARQAMQEQLSKNKELTQKLQVASESEEEEGGTEDVEELLVPDVVNEVQMNADGPNPWMLRSCTSDTKEAATQEDPEQLPELEAHGVSESEGEERPVAEEEILLREFEERRSLRKRSELSQDAEPAGSQETKDSGSQEVLSELRVLSQKLKENHQSRKQKASSEGTIPQVQREEPAPEEEEPLLLQRPERVQTLEELEELGKEECFQNKELPRPVLEGQQSERTPNNRPDAPKEKKKKEQMIDLQNLLTTQSPSVKSLAVPTIEELEDEEERNHRQMIKEAFAGDDVIRDFLKEKREAVEASKPKDVDLTLPGWGEWGGVGLKPSAKKRRRFLIKAPEGPPRKDKNLPNVIINEKRNIHAAAHQVRVLPYPFTHHWQFERTIQTPIGSTWNTQRAFQKLTTPKVVTKPGHIINPIKAEDVGYRSSSRSDLSVIQRNPKRITTRHKKQLKKCSVD
binds | endogenous PINX1 (protein, UniProt Q96BK5 1-328) MSMLAERRRKQKWAVDPQNTAWSNDDSKFGQRMLEKMGWSKGKGLGAQEQGATDHIKVQVKNNHLGLGATINNEDNWIAHQDDFNQLLAELNTCHGQETTDSSDKKEKKSFSLEEKSKISKNRVHYMKFTKGKDLSSRSKTDLDCIFGKRQSKKTPEGDASPSTPEENETTTTSAFTIQEYFAKRMAALKNKPQVPVPGSDISETQVERKRGKKRNKEATGKDVESYLQPKAKRHTEGKPERAEAQERVAKKKSAPAEEQLRGPCWDQSSKASAQDAGDHVQPPEGRDFTLKPKKRRGKKKLQKPVEIAEDATLEETLVKKKKKKDSK
